Source: article PMC8943889 (Chemical Science, 2022)
HELM strings list residues between dots; [ac] is acetyl, [am] amide, other brackets name non-standard units.

Key:
[1] = general procedure: Fmoc solid-phase peptide synthesis; 2-chlorotrityl resin (brevicidine series); Rink amide resin (laterocidine series); BOP/DIPEA; HATU/DIPEA for Dap9-Brev macrolactamization; details: whole synthesis; for isolated yield: over 28 steps; for outcome: scale of the general procedure 0.1 mmol
[2] = general procedure: Fmoc solid-phase peptide synthesis; 2-chlorotrityl resin; BOP/DIPEA; HATU/DIPEA for Dap9-Brev macrolactamization; details: whole synthesis
[3] = general procedure: Fmoc solid-phase peptide synthesis; Rink amide MBHA; BOP/DIPEA; HATU/DIPEA for Dap9-Brev macrolactamization; details: whole synthesis, scale 0.25 mmol

PEPTIDE1{[4MeHex].N.Y.W.[Orn].[D-Orn].G.[Orn].[dW].[dT].[dI].G.[dS]}$PEPTIDE1,PEPTIDE1,10:R3-13:R2$$$V2.0
isolated yield ([1]; scale 0.1 mmol): 2% | isolated mass ([1]; scale 0.1 mmol): 3 mg

PEPTIDE1{[4MeHex].[dN].[dY].[dW].[D-Orn].[Orn].G.[D-Orn].W.S.I.G.S}$PEPTIDE1,PEPTIDE1,10:R3-13:R2$$$V2.0
isolated yield ([1]; scale 0.065 mmol): 13% | isolated mass ([1]; scale 0.065 mmol): 13 mg

PEPTIDE1{[4MeHex].[dN].[dY].[dW].[D-Orn].[Orn].G.[D-Orn].W.T.I.G.S}$PEPTIDE1,PEPTIDE1,10:R3-13:R2$$$V2.0
isolated mass [2]: 13 mg | isolated yield ([2]; overall, over 28 steps, scale of the general procedure 0.1 mmol): 9% | outcome [1]: further elongation of the peptide failed due to an O → N acyl shift

PEPTIDE1{[4MeHex].[dN].[dY].[dW].[D-Orn].[Orn].G.[D-Orn].W.[Dap].I.G.S}$PEPTIDE1,PEPTIDE1,10:R3-13:R2$$$V2.0
isolated yield ([1]; scale 0.1 mmol): 13% | isolated mass ([1]; scale 0.1 mmol): 20 mg

PEPTIDE1{[4MeHex].[dN].[dY].[dW].[D-Orn].[Orn].G.[D-Orn].W.[MeDap].I.G.S}$PEPTIDE1,PEPTIDE1,10:R3-13:R2$$$V2.0
outcome [1]: also attempted for MeDap9-Brev (7) but the on-resin azide reduction step caused peptide decomposition

PEPTIDE1{[iPel].[dS].[dY].[dW].[D-Orn].[Orn].G.[D-Orn].W.[MeDap].I.N.G.G}$PEPTIDE1,PEPTIDE1,10:R3-14:R2$$$V2.0
isolated yield ([3]; over 29 steps): 2.4% | final purity (method not given) [3]: purity >95% | isolated mass [3]: 9.7 mg
